Some of these results come from one statement about several compounds together.
Key:
[1] = test system: MIA PaCa-2-derived xenograft tumor; assay: Pharmacodynamics test of MIA PaCa-2-derived xenograft tumor model in nude mice (test 6); conditions: pharmacodynamic test in vivo
Method: Animal species and number: Balb/c Nude; 6 animals per group.
Test samples: Compound 3-2, Compound 3-6, Compound 3-20, Compound 3-12M.
Test groups: blank solvent control group; Compound 3-2 (10 mg/kg, QD×15 days), Compound 3-6 (10 mg/kg, QD×15 days), Compound 3-20 (10 mg/kg, QD×15 days), Compound 3-12M (10 mg/kg, QD×15 days).
Animal model establishment: MIA paca-2 tumor cells in logarithmic growth phase were cultured in vitro and collected, and inoculated subcutaneously into the right back of nude mice at a quantity of 5×10^6 cells/each. When the tumor volume reached 150-300 mm^3, the tumor-bearing nude mice were randomly grouped. Subsequently, the animals in each group were administered, and the day of the first administration was defined as day 1 of the test.
Administration route and frequency: oral administration by gavage; once a day.
General state observation: observation time and frequency: once a day; observation indexes or contents: including but not limited to administration location, appearance and signs, general behavioral activities, mental status, death and other abnormal performance of the animals. The animals were euthanized at the end of the test.
Tumor volume calculation: V=½×long diameter×short diameter^2 (mm^3). Tumor growth inhibition rate TGI (%) is used to evaluate the tumor inhibition efficacy of the compounds. […]

[2] = Preliminary safety test, 5-day escalating oral dosing in Balb/c mice; type: in vivo; conditions: oral gavage, 5 days, initially suggested
Method: Test samples: Compound 3-2, Compound 3-6, Compound 3-12M, Compound 3-20, and Compound 4-8.
Animal species and number: Balb/c; 6 animals per group (half male and half female).
Administration mode: oral administration by gavage.
Animal grouping and administration dose: vehicle blank group, Compound 3-2 group (200 mg/kg, 400 mg/kg, 800 mg/kg), Compound 3-6 group (200 mg/kg, 400 mg/kg, 800 mg/kg), Compound 3-12M group (200 mg/kg, 400 mg/kg, 800 mg/kg), Compound 3-20 group (200 mg/kg, 400 mg/kg, 800 mg/kg), Compound 4-8 group (200 mg/kg, 400 mg/kg, 800 mg/kg).
Administration frequency: once a day for 5 days.
General clinical observations were performed 2 times a day (once in the morning and once in the afternoon) during the test period. Death, morbidity, respiration, secretions, feces, and diet, drinking situation and so on were observed, and the changes in body weight of the mice during the administration period were recorded. The animals in each group were euthanized after the administration, and all animals were dissected and subjected to gross observation.

Compound | effective dose for tumor inhibition [1] | maximum tolerated dose [2]
C=CC(=O)N1CCN(c2nc(=O)n(-c3c(C)ccnc3C(C)C)c3nc(-c4c(F)cccc4C=C)c(Cl)cc23)[C@@H](C)C1 [Compound 3-6] | less than 10 mg/kg | 
[2H]C([2H])=Cc1cccc(F)c1-c1nc2c(cc1Cl)c(N1CCN(C(=O)C=C)C[C@@H]1C)nc(=O)n2-c1c(C)ccnc1C(C)C [Compound 3-12M] | less than 10 mg/kg | 
[2H]C([2H])=Cc1cccc(F)c1-c1nc2c(cc1Cl)c(N1CCN(C(=O)C=C)C[C@@H]1C)nc(=O)n2-c1c(C)ccnc1C(C)C [Compound 3-20] |  | greater than 800 mg/kg
